PubChem BioAssay AID493014 (National Center for Advancing Translational Sciences (NCATS), 2011)
In all, about 340,000 compounds went through this assay and about 170 (0.05%) were called active. The inconclusive results got no clear call from the source; some entries with a clear call stand among them for comparison. The call rests on the fitted dose curve; in most records, active means well fitted inhibition curve with a large enough effect in the signal ratio, with a control signal flat (not every such curve was filed as active); inconclusive means small, poorly fitted or top-dose-only effect, or effect the other way, or a change in a side signal; inactive means flat fitted curve, though single readings scatter; the % refers to the signal ratio. Potencies of inconclusive entries are doubtful fits and often do not repeat.
Potency means the concentration at half of the fitted maximal effect.

Test: qHTS Assay to Find Inhibitors of Chronic Active B-Cell Receptor Signaling;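 on activity change, negative = inhibition: plate controls were basal doxycycline-induced cells for no effect and cells given 10 µM MG132 for full effect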
Settings: ABC-DLBCL IkBa-CBG/CBR reporter, luminescence ratio (green luciferase fused to IkBa over red control in TMD8 lymphoma cells), 4 h; activity change, negative = inhibition: at 46.1 µM (top of the series)
Outline: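 Cell line TMD8 (human ABC DLBCL), stably expressing tet-inducible CBG68-IkBa fusion and CBR; IMDM/0.5% FBS; cpd up to 46 uM; dox induction, 4 h, 37C/5% CO2; dual luminescence; green/red ratio; MG132 control.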
For `COc1ccc(CNS(=O)(=O)c2cc3c(cc2Cl)NC(=O)CO3)cc1`, the Potency was inconclusive: 1.41 µM [falling, partial curve, poor fit].
For `CC(C)CCOc1ccc(C(CC(N)=O)C(=O)O)cc1` (stereo not given), the activity change, negative = inhibition was inconclusive: -2.11%.
In the case of `CC(C)(C)NC(=O)C(c1cccs1)N(C(=O)c1csnn1)c1cccc(F)c1` (stereo not given), the activity change, negative = inhibition is reported as inconclusive: 1.26%.
In the case of `Cc1ccccc1C(=O)O/N=C(\N)Cc1cccs1`, the activity change, negative = inhibition is reported as inconclusive: -13.8%.
In the case of `COc1ccccc1N=c1oc2cc(O)ccc2cc1C(N)=O`, the Potency is reported as inconclusive: 11.2 µM [falling, partial curve].
With `CC(=O)c1cccc(NC(=O)COc2ccccc2)c1` the activity change, negative = inhibition was inconclusive: 3.57%.
With `O=C(COC(=O)c1cccc(Br)c1)NCC1CCCO1` (stereo not given) the “activity change, negative = inhibition” value was inactive: 5.14%.
For `COc1cc(/C=N/NC(=S)NC(C)C)ccc1OCC(=O)Nc1c(C)cc(C)cc1C`, the activity change, negative = inhibition was inconclusive: 1.1%.
In the case of `CCOC(=O)c1cccc(NC(=O)CSc2nnc(COc3ccccc3)n2CC)c1`, the activity change, negative = inhibition is reported as inconclusive: -6.69%.
For `O=c1[nH]cnc2c1ncn2[C@@H]1O[C@H](COS(=O)(=O)O)[C@@H](O)[C@H]1O`, the “activity change, negative = inhibition” value was inactive: 1.53%.
With `Cc1ccc2nc(-c3ccc(SCC(=O)Nc4cc(C)on4)nc3)[nH]c2c1` the activity change, negative = inhibition was inconclusive: -1.71%.
With `O=C(N1CCN(Cc2ccc3c(c2)OCO3)CC1)C(Cl)(Cl)Cl` the activity change, negative = inhibition was inconclusive: 3.51%.
For `COc1ccc(/C=N/NC(=O)c2nn(-c3ccc(Cl)cc3)c(=O)c3c(N)scc23)cc1`, the “activity change, negative = inhibition” value was inactive: 16.8%.
In the case of `CCOC(=O)N1CCC(NC(=O)c2cccc3c2C(=O)N(Cc2cccnc2)C3)CC1`, the activity change, negative = inhibition is reported as inconclusive: 4.15%.
In the case of `O=C(c1cccc(Cl)c1)c1nn(-c2ccccc2)c(=O)cc1C(F)(F)F`, the activity change, negative = inhibition is reported as inconclusive: -7.62%.
For `O=C(O)c1ccc(NCc2cccc(Br)c2)cc1`, the “activity change, negative = inhibition” value was inactive: 2.58%.
For `Cc1cccc(C)c1NC(=O)/C(C#N)=C/c1ccsc1`, the “activity change, negative = inhibition” value was inactive: -15.2%.
For `CN1C(=O)/C(=C/c2ccccc2OCc2ccc(C(=O)O)cc2)NC1=S`, the Potency was inconclusive: 22.4 µM [falling, single point].
In the case of `CCN1CCN(Cc2c(OC)ccc3ccccc23)CC1`, the activity change, negative = inhibition is reported as inconclusive: -9.31%.
For `NC(=O)NC(CC(=O)OCC(=O)NC(=O)NCc1ccco1)c1ccc(Cl)cc1` (stereo not given), the activity change, negative = inhibition was inconclusive: -6.12%.
For `COc1ccc(C(CNC(=O)CCNS(=O)(=O)c2ccc(Br)cc2)N2CCCC2)cc1` (stereo not given), the “activity change, negative = inhibition” value was inactive: -0.438%.
With `O=C(C1CCN(S(=O)(=O)N2CCC3(CC2)OCCO3)CC1)N1CCOCC1` the activity change, negative = inhibition was inconclusive: 9.08%.
With `COc1ccc(-c2csc(NC(=O)c3ccc(S(C)(=O)=O)cc3)n2)cc1` the activity change, negative = inhibition was inconclusive: 7.95%.
In the case of `CCN1C(=O)c2cccc3c(S(=O)(=O)NCCc4c[nH]c5ccccc45)ccc1c23`, the activity change, negative = inhibition is reported as inconclusive: 1%.
In the case of `O=[N+]([O-])c1ccc(/C=N/N/C(=N/c2ccccn2)c2ccccn2)cc1`, the “activity change, negative = inhibition” value is reported as inactive: -29.7%.
For `CSc1nc(N(C)NC(=O)c2ccc(Cl)cc2)c2ccccc2n1`, the Potency was inconclusive: 1.46 µM [falling, full curve, poor fit].
With `COc1ccccc1NC(=S)NCc1ccccc1` the activity change, negative = inhibition was inconclusive: 2.51%.
In the case of `O=C(NC(=S)Nc1nc(-c2ccc(Br)cc2)cs1)c1cccnc1`, the activity change, negative = inhibition is reported as inconclusive: 0.462%.
With `COc1cc([C@H]2OC[C@H]3[C@@H]2CO[C@@H]3c2ccc(O[C@H]3O[C@H](CO)[C@@H](O)[C@H](O)[C@H]3O)c(OC)c2)ccc1O[C@@H]1O[C@H](CO)[C@@H](O)[C@H](O)[C@H]1O` the activity change, negative = inhibition was inconclusive: 1.44%.
For `CN(Cc1ccc(Cl)c(Cl)c1)C(=O)C1CSC2(C)CCC(=O)N12` (stereo not given), the “activity change, negative = inhibition” value was inactive: -3.86%.
For `CC(=O)Nc1ccc(SCC(=O)NCC2(N3CCCCC3)CCCCC2)cc1`, the activity change, negative = inhibition was inconclusive: 4.12%.
In the case of `Clc1ncccc1-c1nc2ccccc2s1`, the activity change, negative = inhibition is reported as inconclusive: 6.85%.
For `Cc1ccc(OCC(=O)N2CCN(S(C)(=O)=O)CC2)cc1`, the activity change, negative = inhibition was inconclusive: 5.23%.
For `CNC(=O)c1c(NC(=O)CCS(=O)(=O)c2ccc(C)cc2)sc2c1CCN(C(=O)OC)C2`, the Potency was inconclusive: 29.1 µM [falling, single point].
In the case of `CC(C)(C)C(=O)COC(=O)c1ccccc1O`, the activity change, negative = inhibition is reported as inconclusive: 13.5%.
With `Cc1nn2c(NC(C)C)c3c(nc2c1-c1ccccc1)CCC3` the activity change, negative = inhibition was inconclusive: 19.6%.
With `COc1ccc(S(=O)(=O)N2CCc3ccccc32)cc1C(=O)Nc1ccc(C(N)=O)cc1` the activity change, negative = inhibition was inconclusive: -4.73%.
For `CCN(CC)C(=O)COC(=O)C1=NN(c2cc(C)ccc2C)C(=O)CC1`, the activity change, negative = inhibition was inconclusive: 15.2%.
With `COc1ccccc1-c1nnc(Sc2nc([N+](=O)[O-])nn2C)o1` the Potency was inconclusive: 20.6 µM [falling, partial curve].
For `O=C(COc1ccc(Cl)cc1Cl)NC(=S)Nc1ccccc1C(=O)O`, the Potency was inconclusive: 31.6 µM [rising, partial curve].
With `CCOCCCNC(=O)C1CCN(Cc2ccc(OCc3ccccc3)c(OC)c2)CC1` the activity change, negative = inhibition was inconclusive: 5.2%.
With `CCOC(=O)c1cc(-c2ccc(F)cc2)n(CCC(=O)Nc2cc(OC)cc(OC)c2)c1C` the activity change, negative = inhibition was inconclusive: -6.65%.
For `CC(O)[C@H]1CNCCN1CCc1cc(C(F)(F)F)cc(C(F)(F)F)c1` (stereo not given in full), the activity change, negative = inhibition was inconclusive: -25.9%.
For `CCN(c1ccccc1)S(=O)(=O)c1ccc(OC)c(NC(=O)c2cccs2)c1`, the activity change, negative = inhibition was inconclusive: -7.07%.
With `O=C(N/N=C/c1ccc2c(c1)OCO2)c1cccnc1` the Potency was inconclusive: 31.6 µM [rising, single point].
In the case of `CC1Cc2ccccc2N1C(=S)Nc1cccc(S(=O)(=O)N(C)C)c1` (stereo not given), the activity change, negative = inhibition is reported as inconclusive: 0.292%.
For `Cn1nnc(NC(=S)NC(=O)c2cccc3ccccc23)n1`, the “activity change, negative = inhibition” value was inactive: -3.4%.
With `Cc1ccsc1C1C(C#N)=C(N)OC2=C1C(=O)CC(C)(C)C2` (stereo not given) the activity change, negative = inhibition was inconclusive: -15.9%.
With `CN(C)N=C1c2cc(S(=O)(=O)N3CCOCC3)ccc2-c2ccc(S(=O)(=O)N3CCOCC3)cc21` the “activity change, negative = inhibition” value was inactive: 7.36%.
With `COc1ccc2nc(NC(=O)CN(c3ccc(C)cc3)S(=O)(=O)c3c(C)nn(C)c3C)sc2c1` the activity change, negative = inhibition was inconclusive: 20.8%.
For `COc1cccc(-c2csc(N3CCN(CC(=O)NNC(=O)c4ccc(Br)cc4)CC3)n2)c1`, the Potency was inconclusive: 14.6 µM [falling, partial curve].
For `COc1ccc(C(=O)NCC2(c3ccccc3)CCOCC2)cc1[N+](=O)[O-]`, the activity change, negative = inhibition was inconclusive: -5.44%.
For `Cc1cc(C(=O)CCl)c(C)n1-c1c(C)n(C)n(-c2ccccc2)c1=O`, the activity change, negative = inhibition was inconclusive: 4.83%.
With `COC(=O)C(C)Sc1ccc2nnc(-c3ccccc3)n2n1` (stereo not given) the activity change, negative = inhibition was inconclusive: -7.6%.
In the case of `Cc1nc([N+](=O)[O-])c(Br)n1Cc1ccccc1`, the activity change, negative = inhibition is reported as inconclusive: 9.16%.
For `CCCNC(=O)CSc1nnc(-c2ccc(F)cc2)o1`, the activity change, negative = inhibition was inconclusive: 12.3%.
In the case of `Cc1ccc(SCCNC(=O)/C=C/c2cccc([N+](=O)[O-])c2)cc1`, the activity change, negative = inhibition is reported as inconclusive: 4.35%.
In the case of `Cc1cc(N/N=C/c2ccccc2Br)nc2ccccc12`, the Potency is reported as inconclusive: 0.82 µM [rising, partial curve, poor fit].
In the case of `CCN(CC)C(=O)c1oc2ccc(S(=O)(=O)N3CCCCCC3)cc2c1C`, the Potency is reported as inconclusive: 23.1 µM [falling, single point].
In the case of `CN1CCN(C2=C(Cl)C(=O)N(c3ccc(Cl)cc3)C2=O)CC1`, the Potency is reported as inconclusive: 35.5 µM [falling, single point].
With `Cc1ccc(C(=O)CSc2nnc(COc3cccc4cccnc34)o2)cc1` the Potency was inconclusive: 17.8 µM [falling, partial curve, poor fit].
For `C/C(=N\NC(=O)c1ccco1)c1ccc(-c2ccccc2)cc1`, the activity change, negative = inhibition was inconclusive: 3.14%.
For `COc1ccc(/C=C/C(=O)Nc2ccccc2F)cc1S(=O)(=O)N1CCOCC1`, the activity change, negative = inhibition was inconclusive: -16.8%.
With `Fc1ccc(CNn2cnnc2SCc2ccc(F)cc2)cc1` the “activity change, negative = inhibition” value was inactive: 0.598%.
In the case of `Cn1c(Cc2c[nH]c3ccccc23)n[nH]c1=S`, the “activity change, negative = inhibition” value is reported as inactive: 3.7%.
In the case of `CC(Oc1ccc(Cl)cc1Cl)C(=O)NN=C1CCN(C)CC1` (stereo not given), the “activity change, negative = inhibition” value is reported as inactive: -1.98%.
In the case of `CCN1C=CC2=C(C#N)C(N)C(C#N)(C#N)C(c3ccccc3C(F)(F)F)C2C1` (stereo not given), the “activity change, negative = inhibition” value is reported as inactive: -9.79%.
For `CC(C)N(CC(N)=O)c1ncnc2sc(-c3ccccc3)cc12`, the activity change, negative = inhibition was inconclusive: -9.73%.
In the case of `CN(C)c1ccc(/C=C2\N=C(c3ccc(Cl)c([N+](=O)[O-])c3)NC2=O)cc1`, the “activity change, negative = inhibition” value is reported as inactive: -7.56%.
For `O=C(NCc1ccccn1)c1ccc([N+](=O)[O-])cc1`, the “activity change, negative = inhibition” value was inactive: 5.34%.
For `Cc1ccc(C(=O)NC2CC3CCC(C2)N3Cc2ccco2)cc1` (stereo not given), the Potency was inconclusive: 6.51 µM [falling, partial curve, poor fit].
With `CCSc1nnc(-c2cccs2)o1` the activity change, negative = inhibition was inconclusive: 14.3%.
For `O=c1cc(CO)oc(CN2CCN(c3ccccc3)CC2)c1O`, the activity change, negative = inhibition was inconclusive: 1.83%.
For `O=C(O)c1ccccc1NC(=O)c1cc2ccccc2oc1=O`, the Potency was inconclusive: 3.55 µM [falling, partial curve].
With `COc1ccc(N2CCN(Cc3nc4c(c(=O)n(C)c(=O)n4C)n3C(C)C)CC2)cc1` the activity change, negative = inhibition was inconclusive: 8.2%.
With `CCOC(=O)c1sc2ncn(/N=C/c3cccnc3)c(=O)c2c1C` the activity change, negative = inhibition was inconclusive: -4.3%.
For `C/C(=N\NC(=O)c1ccc(CSc2nncn2C)cc1)c1ccc(Cl)cc1`, the activity change, negative = inhibition was inconclusive: 18.3%.
In the case of `COc1ccc(-n2nc(C(=O)NCC(=O)N3CC(C)CC(C)C3)c3ccccc3c2=O)cc1` (stereo not given), the “activity change, negative = inhibition” value is reported as inactive: 20.3%.
For `C[C@H](CO)N1C[C@H](C)[C@@H](CN(C)C(=O)Nc2ccccc2)Oc2ccc(NC(=O)C3CCCCC3)cc2C1=O`, the activity change, negative = inhibition was inconclusive: -0.593%.
In the case of `CC(=O)Nc1ccc(N=Cc2c(O)c(C(=O)Nc3ccccc3)cc3ccccc23)cc1`, the Potency is reported as inconclusive: 1.12 µM [falling, full curve, poor fit].
